PubChem BioAssay AID485294 (National Center for Advancing Translational Sciences (NCATS), 2010)
Among all 370,000 compounds or so, about 150 (0.041%) were called active. All entries are inconclusive by the source's own rule. Clear calls are listed elsewhere. Calls come from the whole dose curve; as a rule, active = well fitted inhibition curve with a large enough effect; inconclusive = small, poorly fitted or top-dose-only effect; inactive = flat fitted curve, though single readings scatter. Some tests of the compounds listed are not included; inactive here does not mean inactive elsewhere.

By UniProt entry, the sequences of proteins in these tests, tags left out.
UniProt P00811, whole entry: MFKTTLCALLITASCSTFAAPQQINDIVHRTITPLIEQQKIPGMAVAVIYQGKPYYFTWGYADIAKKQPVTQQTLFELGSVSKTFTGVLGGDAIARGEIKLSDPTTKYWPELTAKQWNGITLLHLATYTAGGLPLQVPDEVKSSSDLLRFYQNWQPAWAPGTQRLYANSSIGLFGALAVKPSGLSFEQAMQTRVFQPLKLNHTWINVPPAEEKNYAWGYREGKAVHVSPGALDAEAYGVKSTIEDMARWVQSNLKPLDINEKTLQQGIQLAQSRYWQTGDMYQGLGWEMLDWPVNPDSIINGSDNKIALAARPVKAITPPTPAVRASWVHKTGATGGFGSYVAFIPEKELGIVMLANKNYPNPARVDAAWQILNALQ

target: Beta-lactamase (Escherichia coli (strain K12)) (UniProt P00811); assay: qHTS Inhibitors of AmpC Beta-Lactamase (assay with detergent); conditions: AmpC hydrolysis of nitrocefin, absorbance 480 nm, 0.01% Triton; note: nearly all actives have a fitted effect of over 25% in size
Potency is the fitted concentration of half-maximal effect.

Question: With `O=C(OC1CN2CCC1CC2)C(CO)(c1ccccc1)c1ccccc1` (configuration not stated) as the molecule, how does the Potency read?
Answer: inconclusive: 44.7 µM

Question: For `CN(C)c1cccc(C(=O)NCC2(N(C)C)CCCCC2)c1`, which Potency is on record?
Answer: inconclusive: 0.631 µM
